In publication PMC3641083:
These are yes or no findings as the source states them, for the method shown. Binding seen in cells or lysates may run through a third protein. Some results given as binding are weak or reduced against the parent protein; the word gives no strength.

By UniProt entry, the sequences of proteins in these tests, tags left out.
UniProt P13010: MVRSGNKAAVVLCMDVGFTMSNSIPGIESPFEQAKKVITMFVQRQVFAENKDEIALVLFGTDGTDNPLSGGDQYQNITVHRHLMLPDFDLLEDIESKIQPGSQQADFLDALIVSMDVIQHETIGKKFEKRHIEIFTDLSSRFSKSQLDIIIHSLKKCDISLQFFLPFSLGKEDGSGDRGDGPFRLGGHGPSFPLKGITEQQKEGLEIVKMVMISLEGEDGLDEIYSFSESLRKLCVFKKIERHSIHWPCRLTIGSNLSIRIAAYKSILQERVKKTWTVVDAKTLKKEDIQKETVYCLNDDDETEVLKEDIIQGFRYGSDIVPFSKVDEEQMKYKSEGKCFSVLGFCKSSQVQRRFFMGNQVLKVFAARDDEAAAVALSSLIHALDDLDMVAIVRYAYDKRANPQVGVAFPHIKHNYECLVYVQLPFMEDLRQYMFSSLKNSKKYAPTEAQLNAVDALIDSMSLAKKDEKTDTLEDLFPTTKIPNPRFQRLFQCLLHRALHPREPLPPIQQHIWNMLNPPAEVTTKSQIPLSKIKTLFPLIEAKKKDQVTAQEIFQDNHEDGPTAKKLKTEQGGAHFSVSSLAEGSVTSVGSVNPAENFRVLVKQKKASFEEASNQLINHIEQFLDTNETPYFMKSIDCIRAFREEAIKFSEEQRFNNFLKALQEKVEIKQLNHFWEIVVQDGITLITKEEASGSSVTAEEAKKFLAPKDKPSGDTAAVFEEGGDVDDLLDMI
UniProt P09874: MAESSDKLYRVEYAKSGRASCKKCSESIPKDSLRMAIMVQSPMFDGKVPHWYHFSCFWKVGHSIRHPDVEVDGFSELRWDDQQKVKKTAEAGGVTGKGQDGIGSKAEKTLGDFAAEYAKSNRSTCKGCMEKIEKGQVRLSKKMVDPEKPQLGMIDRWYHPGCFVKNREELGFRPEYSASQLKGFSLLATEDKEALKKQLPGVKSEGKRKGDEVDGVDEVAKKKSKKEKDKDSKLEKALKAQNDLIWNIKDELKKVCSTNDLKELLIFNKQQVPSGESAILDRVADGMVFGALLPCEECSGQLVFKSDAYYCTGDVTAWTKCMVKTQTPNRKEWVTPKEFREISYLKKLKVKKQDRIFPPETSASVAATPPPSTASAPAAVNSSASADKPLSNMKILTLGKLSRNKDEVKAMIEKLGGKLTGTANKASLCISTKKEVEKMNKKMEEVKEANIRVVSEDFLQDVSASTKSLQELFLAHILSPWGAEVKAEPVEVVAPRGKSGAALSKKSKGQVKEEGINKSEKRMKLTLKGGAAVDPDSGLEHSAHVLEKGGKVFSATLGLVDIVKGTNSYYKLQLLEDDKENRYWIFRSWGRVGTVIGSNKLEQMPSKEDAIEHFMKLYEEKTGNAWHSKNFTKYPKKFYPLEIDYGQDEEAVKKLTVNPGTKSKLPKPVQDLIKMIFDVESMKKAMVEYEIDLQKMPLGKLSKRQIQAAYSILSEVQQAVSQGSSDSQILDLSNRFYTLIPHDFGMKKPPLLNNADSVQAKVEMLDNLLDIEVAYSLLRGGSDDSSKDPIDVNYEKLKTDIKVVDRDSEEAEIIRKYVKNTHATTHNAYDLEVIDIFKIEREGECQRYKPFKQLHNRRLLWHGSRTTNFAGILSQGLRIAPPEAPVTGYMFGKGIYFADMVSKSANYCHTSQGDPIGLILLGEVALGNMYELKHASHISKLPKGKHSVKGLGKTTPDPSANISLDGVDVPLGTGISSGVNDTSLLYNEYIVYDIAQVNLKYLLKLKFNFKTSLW
UniProt P78527: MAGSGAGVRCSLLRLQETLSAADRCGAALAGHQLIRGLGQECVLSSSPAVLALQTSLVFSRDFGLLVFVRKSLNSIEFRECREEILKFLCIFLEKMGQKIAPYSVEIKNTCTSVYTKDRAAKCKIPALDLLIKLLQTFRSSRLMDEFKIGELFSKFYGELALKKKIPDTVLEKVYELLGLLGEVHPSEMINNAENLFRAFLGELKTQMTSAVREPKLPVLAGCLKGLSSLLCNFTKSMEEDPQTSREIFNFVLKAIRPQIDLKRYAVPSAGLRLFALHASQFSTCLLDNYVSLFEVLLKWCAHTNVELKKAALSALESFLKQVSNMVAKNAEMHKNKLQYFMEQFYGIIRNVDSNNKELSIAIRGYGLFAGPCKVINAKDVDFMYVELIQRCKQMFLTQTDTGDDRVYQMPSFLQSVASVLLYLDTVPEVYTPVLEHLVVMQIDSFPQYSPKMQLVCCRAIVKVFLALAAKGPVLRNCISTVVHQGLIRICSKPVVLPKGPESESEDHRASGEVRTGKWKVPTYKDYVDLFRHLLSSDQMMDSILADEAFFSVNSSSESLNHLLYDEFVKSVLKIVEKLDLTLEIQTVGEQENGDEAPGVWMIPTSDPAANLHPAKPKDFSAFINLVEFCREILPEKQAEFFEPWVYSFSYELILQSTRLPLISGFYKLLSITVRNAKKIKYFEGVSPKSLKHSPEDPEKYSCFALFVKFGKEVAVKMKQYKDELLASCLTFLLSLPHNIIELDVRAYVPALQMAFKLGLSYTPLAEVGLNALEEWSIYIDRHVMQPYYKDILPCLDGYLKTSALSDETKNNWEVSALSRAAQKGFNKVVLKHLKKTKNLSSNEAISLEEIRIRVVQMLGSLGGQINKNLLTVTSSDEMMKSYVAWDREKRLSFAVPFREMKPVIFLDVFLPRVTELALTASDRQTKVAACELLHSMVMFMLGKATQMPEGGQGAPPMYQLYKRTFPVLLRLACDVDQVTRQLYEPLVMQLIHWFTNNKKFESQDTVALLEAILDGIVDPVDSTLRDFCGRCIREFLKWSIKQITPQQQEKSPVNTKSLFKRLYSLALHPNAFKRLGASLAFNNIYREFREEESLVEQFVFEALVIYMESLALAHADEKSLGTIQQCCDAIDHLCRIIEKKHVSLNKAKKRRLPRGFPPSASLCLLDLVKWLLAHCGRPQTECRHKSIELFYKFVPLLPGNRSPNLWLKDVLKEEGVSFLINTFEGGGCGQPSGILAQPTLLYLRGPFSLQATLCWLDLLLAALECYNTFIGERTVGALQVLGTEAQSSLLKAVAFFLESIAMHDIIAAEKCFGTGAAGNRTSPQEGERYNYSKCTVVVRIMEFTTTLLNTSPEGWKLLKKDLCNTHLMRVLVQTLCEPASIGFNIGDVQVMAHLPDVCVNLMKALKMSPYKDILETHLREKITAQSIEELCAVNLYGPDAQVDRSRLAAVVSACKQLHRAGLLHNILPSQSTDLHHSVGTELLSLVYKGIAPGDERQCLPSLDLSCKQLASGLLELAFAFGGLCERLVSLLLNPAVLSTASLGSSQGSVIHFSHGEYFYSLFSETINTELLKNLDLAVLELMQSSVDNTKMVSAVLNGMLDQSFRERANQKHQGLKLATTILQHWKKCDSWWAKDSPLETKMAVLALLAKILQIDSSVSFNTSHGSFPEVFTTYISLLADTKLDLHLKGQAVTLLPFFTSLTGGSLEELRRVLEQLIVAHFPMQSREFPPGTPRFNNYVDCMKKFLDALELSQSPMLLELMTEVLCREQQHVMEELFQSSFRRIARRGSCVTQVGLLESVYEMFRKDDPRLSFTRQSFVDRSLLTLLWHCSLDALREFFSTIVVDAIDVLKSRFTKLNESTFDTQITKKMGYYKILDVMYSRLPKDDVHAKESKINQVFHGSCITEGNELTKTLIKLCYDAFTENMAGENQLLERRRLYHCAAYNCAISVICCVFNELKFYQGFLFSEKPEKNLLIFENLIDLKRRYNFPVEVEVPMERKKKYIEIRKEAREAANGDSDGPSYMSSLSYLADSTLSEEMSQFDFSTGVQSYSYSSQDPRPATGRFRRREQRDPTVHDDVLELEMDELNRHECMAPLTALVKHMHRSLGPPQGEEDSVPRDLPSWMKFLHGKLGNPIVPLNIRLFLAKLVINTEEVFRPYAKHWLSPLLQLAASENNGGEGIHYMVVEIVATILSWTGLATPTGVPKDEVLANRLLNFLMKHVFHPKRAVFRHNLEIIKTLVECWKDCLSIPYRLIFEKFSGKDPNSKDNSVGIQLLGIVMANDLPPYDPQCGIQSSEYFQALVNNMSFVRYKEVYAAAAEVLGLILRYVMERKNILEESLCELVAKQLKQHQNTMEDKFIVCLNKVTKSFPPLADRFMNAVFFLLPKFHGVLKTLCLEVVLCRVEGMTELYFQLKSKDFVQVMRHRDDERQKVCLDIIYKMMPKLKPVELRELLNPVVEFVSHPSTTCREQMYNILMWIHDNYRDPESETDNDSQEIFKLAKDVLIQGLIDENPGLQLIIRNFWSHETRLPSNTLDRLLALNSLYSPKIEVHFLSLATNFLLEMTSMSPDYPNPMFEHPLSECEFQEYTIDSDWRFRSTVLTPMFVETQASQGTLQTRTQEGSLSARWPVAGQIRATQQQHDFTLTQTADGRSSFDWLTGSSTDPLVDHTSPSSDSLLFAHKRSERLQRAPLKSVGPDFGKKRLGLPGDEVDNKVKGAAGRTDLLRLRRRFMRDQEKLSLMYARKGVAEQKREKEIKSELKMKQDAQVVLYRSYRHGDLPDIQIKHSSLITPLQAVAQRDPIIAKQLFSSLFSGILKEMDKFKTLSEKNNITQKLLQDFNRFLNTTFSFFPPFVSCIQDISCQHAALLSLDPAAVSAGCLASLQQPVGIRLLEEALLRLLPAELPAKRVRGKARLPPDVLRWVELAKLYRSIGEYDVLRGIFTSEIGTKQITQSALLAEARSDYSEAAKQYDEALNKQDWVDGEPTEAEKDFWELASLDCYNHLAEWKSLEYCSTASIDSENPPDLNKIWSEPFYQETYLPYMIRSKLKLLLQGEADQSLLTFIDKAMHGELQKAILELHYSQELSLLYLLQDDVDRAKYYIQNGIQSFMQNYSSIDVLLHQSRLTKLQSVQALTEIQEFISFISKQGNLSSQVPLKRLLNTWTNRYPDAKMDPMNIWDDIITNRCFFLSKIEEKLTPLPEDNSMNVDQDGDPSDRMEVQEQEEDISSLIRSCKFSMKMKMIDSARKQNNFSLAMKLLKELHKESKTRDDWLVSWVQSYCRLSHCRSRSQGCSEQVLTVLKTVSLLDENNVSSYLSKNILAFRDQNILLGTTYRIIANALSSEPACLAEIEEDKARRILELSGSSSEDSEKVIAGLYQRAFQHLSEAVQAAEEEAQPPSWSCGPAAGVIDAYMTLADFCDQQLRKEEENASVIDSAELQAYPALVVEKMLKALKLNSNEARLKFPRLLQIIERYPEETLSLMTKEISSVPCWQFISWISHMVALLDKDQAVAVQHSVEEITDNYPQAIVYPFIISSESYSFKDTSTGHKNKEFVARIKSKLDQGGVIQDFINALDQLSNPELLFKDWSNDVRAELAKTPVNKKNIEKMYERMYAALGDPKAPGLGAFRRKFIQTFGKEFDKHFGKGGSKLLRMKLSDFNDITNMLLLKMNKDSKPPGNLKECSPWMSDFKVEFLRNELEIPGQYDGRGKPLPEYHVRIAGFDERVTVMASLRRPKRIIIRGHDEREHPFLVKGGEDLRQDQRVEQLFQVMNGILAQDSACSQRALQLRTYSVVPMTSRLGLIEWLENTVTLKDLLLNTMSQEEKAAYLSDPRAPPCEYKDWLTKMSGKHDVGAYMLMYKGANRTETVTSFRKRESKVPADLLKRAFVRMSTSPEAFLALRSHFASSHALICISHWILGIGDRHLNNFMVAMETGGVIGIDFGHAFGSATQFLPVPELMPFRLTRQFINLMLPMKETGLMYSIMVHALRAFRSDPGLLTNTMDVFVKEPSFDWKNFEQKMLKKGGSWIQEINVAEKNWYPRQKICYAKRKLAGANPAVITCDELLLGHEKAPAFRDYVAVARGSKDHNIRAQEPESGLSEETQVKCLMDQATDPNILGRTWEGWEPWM

Key:
[1] = target: Ku80 (human (endogenous in HeLa)) (UniProt P13010); assay: co-IP; HeLa nuclear extract; Protein G-Dynal beads with polyclonal anti-RECQ1 or mouse monoclonal anti-Ku70/80, 4°C, 90 min, three washes with lysis buffer; also with extract pre-incubated with benzonase (50 U/ml, 2 h, 4°C); Western blot
[2] = target: RECQ1 (human (endogenous in HeLa, MO59J, MO59K)) (UniProt P46063); assay: as above

binding [1] | binding [2] | Substance
binds |  | PARP-1 (from UniProt P09874 1-1014)
 | no binding | DNA-PKcs (from UniProt P78527 1-4128)
